Reference: paper PMC4732300
No constants are given. Whether binding was seen depends on the method and setting. In cells and extracts the contact can be indirect. Some entries that bind do so weakly or less than the wild type. For part of these data: Sequences can lack the tags named with a protein.

The chains behind the UniProt entries cited, without tags or fusion partners.
UniProt Q91VH2: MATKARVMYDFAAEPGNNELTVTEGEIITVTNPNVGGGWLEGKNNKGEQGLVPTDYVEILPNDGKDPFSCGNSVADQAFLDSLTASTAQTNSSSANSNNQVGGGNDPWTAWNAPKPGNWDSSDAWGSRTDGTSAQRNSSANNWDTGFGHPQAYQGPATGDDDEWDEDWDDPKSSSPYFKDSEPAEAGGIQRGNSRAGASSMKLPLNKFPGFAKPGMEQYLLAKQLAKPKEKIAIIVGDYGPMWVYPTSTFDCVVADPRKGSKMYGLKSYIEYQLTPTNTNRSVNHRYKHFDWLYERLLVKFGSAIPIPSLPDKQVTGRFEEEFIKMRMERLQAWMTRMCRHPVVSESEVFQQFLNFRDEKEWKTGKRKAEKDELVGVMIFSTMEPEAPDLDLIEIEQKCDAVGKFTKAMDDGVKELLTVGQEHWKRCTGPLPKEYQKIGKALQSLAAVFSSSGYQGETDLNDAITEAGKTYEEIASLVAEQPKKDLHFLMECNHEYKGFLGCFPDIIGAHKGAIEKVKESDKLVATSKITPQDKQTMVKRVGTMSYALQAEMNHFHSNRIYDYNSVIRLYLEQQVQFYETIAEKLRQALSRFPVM
UniProt Q6PFY1: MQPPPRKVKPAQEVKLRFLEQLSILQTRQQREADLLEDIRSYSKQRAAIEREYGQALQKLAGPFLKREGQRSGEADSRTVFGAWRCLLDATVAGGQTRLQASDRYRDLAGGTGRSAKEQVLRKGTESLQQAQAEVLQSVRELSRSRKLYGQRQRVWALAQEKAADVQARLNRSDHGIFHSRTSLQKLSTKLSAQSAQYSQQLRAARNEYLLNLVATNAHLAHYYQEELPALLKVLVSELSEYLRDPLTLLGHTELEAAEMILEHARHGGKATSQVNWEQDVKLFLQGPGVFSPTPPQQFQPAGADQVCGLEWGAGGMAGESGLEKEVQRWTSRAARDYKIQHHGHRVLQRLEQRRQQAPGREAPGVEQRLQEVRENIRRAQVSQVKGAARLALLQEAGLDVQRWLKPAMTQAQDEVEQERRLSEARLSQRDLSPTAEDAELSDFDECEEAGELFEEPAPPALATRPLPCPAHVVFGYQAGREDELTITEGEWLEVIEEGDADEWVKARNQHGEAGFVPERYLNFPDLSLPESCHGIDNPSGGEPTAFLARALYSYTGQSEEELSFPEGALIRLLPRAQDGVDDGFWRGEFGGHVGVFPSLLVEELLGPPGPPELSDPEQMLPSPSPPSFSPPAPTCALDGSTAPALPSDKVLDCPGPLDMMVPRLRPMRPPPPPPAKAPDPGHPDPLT

T1: EGFP–SNX33 (mouse) (UniProt Q4VAA7)
T1 sequence: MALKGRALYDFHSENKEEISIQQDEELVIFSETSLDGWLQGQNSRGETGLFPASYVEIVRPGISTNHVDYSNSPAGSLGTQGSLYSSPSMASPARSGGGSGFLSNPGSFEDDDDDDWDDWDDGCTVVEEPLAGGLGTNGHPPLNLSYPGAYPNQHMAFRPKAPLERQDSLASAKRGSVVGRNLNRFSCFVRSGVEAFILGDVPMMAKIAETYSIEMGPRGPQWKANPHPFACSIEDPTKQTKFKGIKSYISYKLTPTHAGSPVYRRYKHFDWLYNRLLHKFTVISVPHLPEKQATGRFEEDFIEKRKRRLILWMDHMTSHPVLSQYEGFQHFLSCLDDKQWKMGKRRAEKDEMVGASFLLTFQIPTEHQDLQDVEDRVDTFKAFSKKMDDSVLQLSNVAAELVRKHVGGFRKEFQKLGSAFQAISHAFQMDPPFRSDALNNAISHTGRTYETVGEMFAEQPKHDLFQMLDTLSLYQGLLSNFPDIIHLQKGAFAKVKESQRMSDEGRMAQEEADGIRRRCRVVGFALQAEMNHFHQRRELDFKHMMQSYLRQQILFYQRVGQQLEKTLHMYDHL

T2: Tomato–SNX18 (UniProt Q91ZR2)
T2 sequence: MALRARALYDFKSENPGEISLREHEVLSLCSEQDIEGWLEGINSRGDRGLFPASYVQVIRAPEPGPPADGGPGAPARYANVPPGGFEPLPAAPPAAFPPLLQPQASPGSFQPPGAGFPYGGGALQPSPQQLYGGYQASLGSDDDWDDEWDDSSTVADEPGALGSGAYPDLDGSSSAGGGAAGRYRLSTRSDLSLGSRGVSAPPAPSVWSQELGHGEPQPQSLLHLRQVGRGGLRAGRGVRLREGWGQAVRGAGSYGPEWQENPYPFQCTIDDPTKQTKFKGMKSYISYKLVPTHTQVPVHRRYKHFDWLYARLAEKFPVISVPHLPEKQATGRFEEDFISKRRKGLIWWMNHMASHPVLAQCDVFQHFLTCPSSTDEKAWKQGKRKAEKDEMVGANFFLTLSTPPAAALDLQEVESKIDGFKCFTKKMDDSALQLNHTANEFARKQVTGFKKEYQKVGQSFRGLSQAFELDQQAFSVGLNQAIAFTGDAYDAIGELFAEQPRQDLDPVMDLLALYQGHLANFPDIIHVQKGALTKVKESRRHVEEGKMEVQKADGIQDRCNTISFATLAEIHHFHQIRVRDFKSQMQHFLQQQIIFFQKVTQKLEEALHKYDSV

B1: Tomato–SNX18 (protein, UniProt Q91ZR2 1-614)
chain: T2 sequence
B2: EGFP–SNX33 (protein, UniProt Q4VAA7 1-574)
chain: T1 sequence

Legend:
Assay in all cases: co-IP; COS-7 cells co-transfected; lysis in 50 mM Tris-HCl pH 7.4, 150 mM NaCl, 1 mM EDTA, 1% Triton X-100; IP with anti-FLAG and, reciprocally, with antibody against the fluorescent tag, overnight at 4°C, Protein A/G agarose; western blot
EGFP–SNX33 (mouse) = biological target: T1, EGFP–SNX33 (mouse)
Tomato–SNX18 = biological target: T2, Tomato–SNX18
mCherry–SNX9 = mCherry–SNX9 (UniProt Q91VH2)
[1] = biological target: FLAG–NWK2 (expressed in COS-7 cells) (mouse) (UniProt Q6PFY1)

Molecule | binding (EGFP–SNX33 (mouse)) | binding (Tomato–SNX18) | binding (mCherry–SNX9) | binding [1]
FLAG–NWK2 (expressed in COS-7 cells) (from UniProt Q6PFY1 1-688) | binds | binds | binds | 
mCherry–SNX9 (from UniProt Q91VH2 1-595) |  |  |  | binds
B1 |  |  |  | binds
B2 |  |  |  | binds
